# Results from US11529424B2, “Synthetic bioconjugates” (Symic Holdings, Inc., priority 2017, dated 2022).
# These are yes or no findings as the source states them, for the method shown. A result given as binding can be weak or reduced; the word gives no strength.
# Biological target: Collagen Type I
# Assay: Collagen Type I coated plate assay, streptavidin-HRP, A450
row,binding,Binder
1,binds,WREPSFSALSGSGSGSRR [… (vWF-2× with GSGSGSRR spacer)]
2,binds,"GQLYKSILYGSG [… (Peptide X), binding domain without spacer]"
3,binds,WREPSFSALS [… (vWF-2×)]

# Biological target: Collagen Type I
# Assay: Collagen Type I adsorbed on high-bind plate, streptavidin-HRP/TMB, absorbance at 450 nm; EC50 given as ratio to the reference Compound 10 (Example 6)
row,binding,Binder
1,binds,WREPSFSALSGSGSGSRR [… (vWF-2× with GSGSGSRR spacer)]
2,binds,GSGSGSRR [Spacer A]
3,binds,"GQLYKSILYGSG [… (Peptide X), binding domain without spacer]"
4,binds,WREPSFSALS [… (vWF-2×)]
